These are yes or no findings as the source states them, for the method shown. Binding seen in cells or lysates may run through a third protein. These calls come from enrichment with a bait or labelling near it, and not all partners need be listed. Tags and fused reporters may be left off the sequences shown.
How the values were obtained:
[1] = molecular target: N-terminally 3xFLAG-tagged GPER1 (G protein-coupled estrogen receptor 1) (UniProt Q99527); test: affinity purification with mass spectrometry; F-GPER1 or F-GPER1-APEX2 in transfected HEK293T; lysis buffer 10 mM Tris-HCl pH 7.5, 50 mM NaCl, 1 mM EDTA, 10% glycerol, 10 mM Na-molybdate; anti-FLAG IP overnight at 4 °C, Protein G Dynabeads, mouse IgG as control; LC-MS/MS
[2] = molecular target: N-terminally 3xFLAG-tagged GPER1 fused to APEX2 (UniProt Q99527); test: as above
[3] = molecular target: N-terminally 3xFLAG-tagged GPER1 fused to APEX2 (UniProt Q99527); test: proximity labelling; F-GPER1-APEX2 in transfected HEK293T cells; 500 µM biotinyl tyramide 45 min, 1 mM H2O2 1 min, without or with 100 nM E2 for 10 min; RIPA lysate, streptavidin magnetic beads, LC-MS/MS; compared with F-APEX2-NES; 3 biological replicates

By UniProt entry, the sequences of proteins in these tests, tags left out.
UniProt Q99527: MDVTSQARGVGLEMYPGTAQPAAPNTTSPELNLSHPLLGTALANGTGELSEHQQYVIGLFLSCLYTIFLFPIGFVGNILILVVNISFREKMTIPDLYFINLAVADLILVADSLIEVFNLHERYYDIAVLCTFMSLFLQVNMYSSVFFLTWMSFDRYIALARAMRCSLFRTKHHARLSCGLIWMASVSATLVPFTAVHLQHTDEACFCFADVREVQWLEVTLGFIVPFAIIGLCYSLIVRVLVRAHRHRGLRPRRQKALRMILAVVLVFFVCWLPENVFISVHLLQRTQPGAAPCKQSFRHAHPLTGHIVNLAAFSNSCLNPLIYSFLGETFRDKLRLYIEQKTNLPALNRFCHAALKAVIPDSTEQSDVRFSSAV

Measured: binding

B1: neutral α-glucosidase AB (GANAB), catalytic subunit of α-glucosidase II (enzyme, UniProt Q14697 29-944)
chain: ITLAVDRSNFKTCEESSFCKRQRSIRPGLSPYRALLDSLQLGPDSLTVHLIHEVTKVLLVLELQGLQKNMTRFRIDELEPRRPRYRVPDVLVADPPIARLSVSGRDENSVELTMAEGPYKIILTARPFRLDLLEDRSLLLSVNARGLLEFEHQRAPRVSQGSKDPAEGDGAQPEETPRDGDKPEETQGKAEKDEPGAWEETFKTHSDSKPYGPMSVGLDFSLPGMEHVYGIPEHADNLRLKVTEGGEPYRLYNLDVFQYELYNPMALYGSVPVLLAHNPHRDLGIFWLNAAETWVDISSNTAGKTLFGKMMDYLQGSGETPQTDVRWMSETGIIDVFLLLGPSISDVFRQYASLTGTQALPPLFSLGYHQSRWNYRDEADVLEVDQGFDDHNLPCDVIWLDIEHADGKRYFTWDPSRFPQPRTMLERLASKRRKLVAIVDPHIKVDSGYRVHEELRNLGLYVKTRDGSDYEGWCWPGSAGYPDFTNPTMRAWWANMFSYDNYEGSAPNLFVWNDMNEPSVFNGPEVTMLKDAQHYGGWEHRDVHNIYGLYVHMATADGLRQRSGGMERPFVLARAFFAGSQRFGAVWTGDNTAEWDHLKISIPMCLSLGLVGLSFCGADVGGFFKNPEPELLVRWYQMGAYQPFFRAHAHLDTGRREPWLLPSQHNDIIRDALGQRYSLLPFWYTLLYQAHREGIPVMRPLWVQYPQDVTTFNIDDQYLLGDALLVHPVSDSGAHGVQVYLPGQGEVWYDIQSYQKHHGPQTLYLPVTLSSIPVFQRGGTIVPRWMRVRRSSECMKDDPITLFVALSPQGTAQGELFLDDGHTFNYQTRQEFLLRRFSFSGNTLVSSSADPEGHFETPIWIERVVIIGAGKPAAVVLQTKGSPESRLSFQHDPETSVLVLRKPGINVASDWSIHLR
binds: all assays above

B2: CLPTM1 (protein, UniProt O96005 1-669)
chain: MAAAQEADGARSAVVAAGGGSSGQVTSNGSIGRDPPAETQPQNPPAQPAPNAWQVIKGVLFRIFIIWAISSWFRRGPAPQDQAGPGGAPRVASRNLFPKDTLMNLHVYISEHEHFTDFNATSALFWEQHDLVYGDWTSGENSDGCYEHFAELDIPQSVQQNGSIYIHVYFTKSGFHPDPRQKALYRRLATVHMSRMINKYKRRRFQKTKNLLTGETEADPEMIKRAEDYGPVEVISHWHPNITINIVDDHTPWVKGSVPPPLDQYVKFDAVSGDYYPIIYFNDYWNLQKDYYPINESLASLPLRVSFCPLSLWRWQLYAAQSTKSPWNFLGDELYEQSDEEQDSVKVALLETNPYLLALTIIVSIVHSVFEFLAFKNDIQFWNSRQSLEGLSVRSVFFGVFQSFVVLLYILDNETNFVVQVSVFIGVLIDLWKITKVMDVRLDREHRVAGIFPRLSFKDKSTYIESSTKVYDDMAFRYLSWILFPLLGCYAVYSLLYLEHKGWYSWVLSMLYGFLLTFGFITMTPQLFINYKLKSVAHLPWRMLTYKALNTFIDDLFAFVIKMPVMYRIGCLRDDVVFFIYLYQRWIYRVDPTRVNEFGMSGEDPTAAAPVAEVPTAAGALTPTPAPTTTTATREEASTSLPTKPTQGASSASEPQEAPPKPAEDKKKD
binds: all assays above

Source: publication PMC10650109
